This passage reports isolated yield results from US10603357B2 (Universite de Lorraine, priority 2004, dated 2020).

The data set can be described thus: peptide made by a vendor. The following applies: whole synthesis.

End groups of sequences in plain letters are not given here.

With LQVTDSGLYRCVIYHPP, the isolated yield result was “greater than 99%”.
